Reference: PubChem BioAssay AID540256 (National Center for Advancing Translational Sciences (NCATS), 2011)
Out of some 300,000 compounds screened, about 3,700 (1.2%) were called active. This list was built around the results that the source calls inconclusive (neither active nor inactive); the mix of calls is not that of the screen. The call rests on the fitted dose curve; tested in HEK293 cells. A potency beside an inconclusive call is a rough fit, not a confirmed value.
On the % scale 0 is the no-effect control and ±100 the full control effect; potency means the concentration at half of the fitted maximal effect.

Test: qHTS for Inhibitors of binding or entry into cells for Lassa Virus; further: nearly all actives have a fitted effect of over 50% in size
Settings: Lassa virus pseudotype entry inhibition, cell reporter; activity change, negative = inhibition: at 37.9 µM (top of the series) unless noted
With C=CC(=O)N1c2ccccc2Sc2ccc(NC(=O)OCC)cc21 the Potency was inconclusive: 11.2 µM [inhibitor, partial curve, poor fit]. With O=C(Nc1ccc(Cl)cc1F)c1ccccc1Br the Potency was inconclusive: 1.26 µM [activator, partial curve]. With CCN(CC(=O)Nc1ccc2c(c1)OCCO2)S(=O)(=O)c1ccccc1 the Potency was inconclusive: 0.158 µM [activator, full curve]. With CC1(C)CC(=O)C2=C(C1)Oc1nc3ccccc3cc1C2C(C#N)C#N (centres undefined) the Potency was active: 15.8 µM. For O=C1c2cccc([N+](=O)[O-])c2C(=O)N1c1cccnc1, the Potency was inconclusive: 6.31 µM [inhibitor, single point]. In the case of O=C(NCCC1=CCCCC1)C1CCCN(S(=O)(=O)c2ccccc2)C1 (centres undefined), the Potency is reported as inconclusive: 8.91 µM [inhibitor, partial curve]. With O=C(OCc1ccccc1)N(CCF)c1cn(Cc2ccccc2)c(=O)n(Cc2ccccc2)c1=O the Potency was inconclusive: 6.31 µM [inhibitor, partial curve, poor fit]. With CCN(CC(=O)NCc1cccs1)c1nnnn1-c1ccccc1 the Potency was inconclusive: 29.1 µM [inhibitor, single point]. For COc1ccc(OCCC(=O)Nc2nccs2)cc1, the Potency was inconclusive: 0.316 µM [inhibitor, full curve, poor fit]. For COc1ccc(NC(=O)C(C)Sc2ccccc2)cc1 (centres undefined), the Potency was inconclusive: 22.4 µM [activator, single point]. In the case of COc1cc(C(=O)N(C)CC2CCN(CCc3cccc(C(F)(F)F)c3)CC2)ccc1C, the Potency is reported as inconclusive: 0.562 µM [inhibitor, full curve, poor fit]. In the case of CCCCN(C(=O)/C=C/c1ccco1)c1c(N)n(CCC)c(=O)[nH]c1=O, the “activity change, negative = inhibition” value is reported as inactive: -10.5%. In the case of CC(=O)Nc1ccc(S(=O)(=O)NCCC(=O)N2CCc3ccccc32)cc1, the “activity change, negative = inhibition” value is reported as inactive: 2.47%. In the case of CC(Sc1nc2ccccc2s1)C(=O)N(C)Cc1ccccc1 (centres undefined), the Potency is reported as inconclusive: 3.98 µM [inhibitor, partial curve, poor fit]. For Cc1ccc(NC(=O)CSc2nc(NS(=O)(=O)c3ccc(C)cc3)cc(=O)[nH]2)cc1, the “activity change, negative = inhibition” value was inactive: -17.5%. In the case of CC(C)(CNC(=O)CCNC(=O)c1ccc(Br)cc1)N1CCOCC1, the “activity change, negative = inhibition” value is reported as inactive: 1.8%. For CCc1nnc(NC(=O)CSc2nnc(C3CCCCC3)n2-c2ccccc2)s1, the Potency was inconclusive: 6.51 µM [activator, partial curve, poor fit]. For Cc1nn2c(=O)cc(COC(=O)COc3ccc(F)cc3)nc2s1, the “activity change, negative = inhibition” value was inactive: 11.2% [at 46.1 µM]. For CCCCN(C(=O)c1cnccn1)c1c(N)n(CCC)c(=O)[nH]c1=O, the “activity change, negative = inhibition” value was inactive: 11.8% [at 46.1 µM]. In the case of NC(=O)NC(=O)C(c1ccccc1)N1CCN(S(=O)(=O)Cc2ccccc2)CC1 (centres undefined), the “activity change, negative = inhibition” value is reported as inactive: -1.8%. With CCc1ccc(NC(=O)CCc2nnc3n(C)c(=O)c4sccc4n23)cc1 the “activity change, negative = inhibition” value was inactive: 24.8% [at 46.1 µM]. With Cc1cccc(NC(=O)c2ccc(N3CCOCC3)c([N+](=O)[O-])c2)n1 the “activity change, negative = inhibition” value was inactive: 0.924%. For Cc1ccc(NC(=O)c2ccc3snnc3c2)cc1, the Potency was inconclusive: 12.6 µM [inhibitor, partial curve, poor fit]. For COC(=O)c1c(NC(=S)NN2CCN(C)CC2)sc2c1CCC(C)C2 (centres undefined), the Potency was inconclusive: 10 µM [inhibitor, partial curve, poor fit]. In the case of COc1ccc(-n2nc(C(=O)NCC(=O)N3CCN(C)CC3)c3ccccc3c2=O)cc1OC, the “activity change, negative = inhibition” value is reported as inactive: 0.202%. For Cc1ccc(NNS(=O)(=O)c2ccc(C)cc2)cc1, the Potency was inconclusive: 6.31 µM [activator, single point]. For COc1ccc(C=CC(=O)C=CC=Cc2ccccc2)cc1, the Potency was inconclusive: 11.2 µM [inhibitor, partial curve]. In the case of COC(=O)CN(c1ccccc1OC)S(=O)(=O)c1ccccc1, the Potency is reported as inconclusive: 7.3 µM [activator, full curve, poor fit]. For CC1C/C(=N\NC(=O)c2ccc(NS(=O)(=O)c3ccc(Br)cc3)cc2)CC(C)(C)C1 (centres undefined), the “activity change, negative = inhibition” value was inactive: -0.971%. With CCN1C(=O)C(CC(=O)Nc2ccc(OC)cc2)N(CCc2ccc(OC)cc2)C1=S (centres undefined) the Potency was inconclusive: 11.2 µM [inhibitor, partial curve, poor fit]. For O=C(CNC(=O)C(c1ccccc1)c1ccccc1)N/N=C\c1ccc2c(c1)OCO2, the Potency was inconclusive: 35.5 µM [inhibitor, single point]. With CCOC(=O)c1ccc(NC(=O)NCc2ccccc2)cc1 the Potency was inconclusive: 17.8 µM [inhibitor, partial curve, poor fit]. In the case of COC(=O)c1ccccc1NC(=O)C1CCN(S(=O)(=O)c2cc(OC)ccc2OC)CC1, the Potency is reported as inconclusive: 20.6 µM [inhibitor, single point]. For CC(C)(C)OC(=O)N1CCC(c2c(C(=O)NCc3ccco3)cnn2-c2ccccc2Cl)CC1, the Potency was inconclusive: 3.55 µM [inhibitor, partial curve, poor fit]. In the case of COc1ccc(NS(=O)(=O)c2cccc(NC(=O)CNC(C)=O)c2)cc1, the “activity change, negative = inhibition” value is reported as inactive: -1.89%. For COc1ccc(OCC(=O)N/N=C(\CCC(=O)O)c2cccs2)cc1, the Potency was inconclusive: 14.1 µM [activator, single point]. For CCOc1ccc(S(=O)(=O)n2nc(C)c(S(=O)(=O)N3CCCCC3)c2C)cc1, the “activity change, negative = inhibition” value was inactive: -6.26% [at 46.1 µM]. In the case of Brc1ccc(-c2nc3ccccc3s2)s1, the Potency is reported as inconclusive: 3.16 µM [activator, single point]. In the case of Cc1[nH]c2ccccc2c1/C=N/Nc1nc2ccccc2[nH]1, the Potency is reported as inconclusive: 8.91 µM [inhibitor, partial curve, poor fit]. In the case of CCCS(=O)(=O)N1CCC(C(=O)NCc2ccc(F)cc2)CC1, the “activity change, negative = inhibition” value is reported as inactive: 5.59%. With O=C1CC(c2ccccc2)CC2=C1C=Nc1ccccc1N2 (centres undefined) the Potency was inconclusive: 7.08 µM [inhibitor, full curve]. In the case of COc1cc(/C=C/C(=O)O)ccc1OCc1ccccc1C#N, the Potency is reported as inconclusive: 1.26 µM [activator, single point]. For Cc1ccc(S(=O)(=O)/N=C(/Nc2c(C)n(C)n(-c3ccccc3)c2=O)c2ccc(Cl)cc2)cc1, the Potency was inconclusive: 8.91 µM [inhibitor, partial curve, poor fit]. In the case of COc1ccccc1N1C(=O)CC1(C#N)c1ccc(OCc2ccccc2)cc1 (centres undefined), the Potency is reported as inconclusive: 35.5 µM [inhibitor, single point]. In the case of COc1cc(CN2CCc3nc(N4CCN(c5ccccn5)CC4)ncc3C2)cc(OC)c1OC, the Potency is reported as inconclusive: 15.8 µM [inhibitor, partial curve, poor fit]. In the case of O=C(COC(=O)CSc1ccc2ccccc2c1)Nc1ccccc1OC(F)F, the Potency is reported as inconclusive: 1.26 µM [inhibitor, single point]. For COc1ccc(OC)c(N2Cc3cc(C)c(C)cc3C2)c1, the “activity change, negative = inhibition” value was inactive: -22.3%. With COc1cc2c[n+](C)c3c4ccccc4ccc3c2cc1OC the “activity change, negative = inhibition” value was inactive: 26.5%. For CC(C)(C)c1ccc(C(=O)NCC(c2cccs2)S(=O)(=O)c2cccs2)cc1 (centres undefined), the Potency was inconclusive: 12.6 µM [inhibitor, partial curve]. With Cc1ccc(N(Cc2ccccc2)C(=O)c2cccc(S(=O)(=O)N3CC(C)OC(C)C3)c2)cc1 (centres undefined) the Potency was inconclusive: 3.16 µM [inhibitor, full curve, poor fit]. In the case of O=C(c1ccco1)N(Cc1cc2ccccc2[nH]c1=O)CC1CCCO1 (centres undefined), the “activity change, negative = inhibition” value is reported as inactive: 1.61%. For COc1ccc(NC2CCCN(C(=O)c3oc(C)cc3C)C2)cc1OC (centres undefined), the Potency was inconclusive: 0.891 µM [inhibitor, partial curve, poor fit]. For O=C(CN1C2=NCCCN2c2ccccc21)c1ccc([N+](=O)[O-])cc1, the “activity change, negative = inhibition” value was inactive: -13.8%. With COCCSc1ccccc1C(=O)Nc1ccc(Cl)cn1 the “activity change, negative = inhibition” value was inactive: 8.63%. For O=C(NCCc1ccccc1)c1c(F)cccc1F, the Potency was inconclusive: 35.5 µM [inhibitor, single point]. For O=[N+]([O-])c1cccc2c(N3CCCC3)ccnc12, the Potency was inconclusive: 35.5 µM [inhibitor, single point]. With CC(C)CCn1nnnc1C(c1ccc(N(C)C)cc1)N1CCN(C(=O)c2ccco2)CC1 (centres undefined) the Potency was inconclusive: 12.6 µM [inhibitor, single point]. In the case of O=C1N/C(=C/c2ccco2)C(=O)N1Cc1ccccc1F, the Potency is reported as inconclusive: 31.6 µM [inhibitor, single point]. For Cc1cc(NC(=O)c2c(C)noc2C)no1, the activity change, negative = inhibition was inconclusive: 5.89% [activator]. With NCC(O)COCCC12CC3CC(CC(C3)C1)C2 (centres undefined) the “activity change, negative = inhibition” value was inactive: 9.74%. In the case of Cn1cccc1C(=O)N1CCc2ccccc2C1, the Potency is reported as inconclusive: 35.5 µM [activator, single point]. For COc1cccc(NS(=O)(=O)c2ccc3[nH]cc(C(=O)NCCC(C)C)c(=O)c3c2)c1, the Potency was inconclusive: 22.4 µM [inhibitor, single point]. In the case of Cc1ccc(CSCC(=O)N(CCC(C)C)c2c(N)n(Cc3ccccc3)c(=O)[nH]c2=O)cc1, the Potency is reported as inconclusive: 3.16 µM [inhibitor, full curve, poor fit]. With Cc1ccccc1N=Cc1c(O)n(-c2nccs2)c(=O)c2ccccc12 the Potency was inconclusive: 29.1 µM [inhibitor, single point]. In the case of Cc1cc(C)c(-c2csc(NC(=O)c3n[nH]c(=O)c4ccccc34)n2)c(C)c1, the Potency is reported as inconclusive: 3.55 µM [inhibitor, single point]. With CCOc1ccc(OCC)c(NC(=O)C(NS(=O)(=O)c2cccs2)c2ccccc2)c1 (centres undefined) the “activity change, negative = inhibition” value was inactive: -24.3% [at 46.1 µM]. With CC1Cc2ccccc2N1C(=O)NC1CC(=O)N(c2ccc3c(c2)OCCO3)C1 (centres undefined) the “activity change, negative = inhibition” value was inactive: -7.16% [at 46.1 µM]. With CC(C)(C)C(=O)Nc1ccc2c(c1)-c1cc(NC(=O)C(C)(C)C)ccc1C2 the “activity change, negative = inhibition” value was inactive: 1.22%. In the case of O=C(/C=C/c1ccc(OCCCF)cc1)N1CCN(Cc2ccccc2)CC1, the Potency is reported as inconclusive: 4.47 µM [inhibitor, partial curve, poor fit].
